According to patent publication US6228363A, “Peptides for the treatment of systemic lupus erythematosus” (Hadasit Medical Research Services & Development Company Ltd., priority 1997, dated 2001):
At least one peptide structure holds a part that was inferred or is arguable (an end, a ring closure or a residue). Residues, ends and D or L forms follow the SMILES beside them.

Test system: MRL/1pr/1pr mice
Test: Effect on clinical course of murine SLE (survival, renal histology)
Assay type: in vivo

Structure (SMILES) | survival of MRL/1pr/1pr mice versus PBS control (FIG. 8) (60 μg i.p. once a week for 16 weeks, 6 week old female mice) | survival of MRL/1pr/1pr mice versus PBS control (FIG. 9) (50 μg i.p. three times a week, 6 week old mice)
CC(C)C[C@H](NC(=O)[C@H](CC(=O)O)NC(=O)[C@H](CC(C)C)NC(=O)[C@H](CCCNC(=N)N)NC(=O)[C@@H](NC(=O)[C@H](CCCCN)NC(=O)[C@H](Cc1ccc(O)cc1)NC(=O)CNC(=O)[C@H](CCC(=O)O)NC(=O)[C@@H](N)CCCCN)C(C)C)C(=O)N[C@@H](CC(N)=O)C(=O)N[C@H](C(=O)N[C@H](C(=O)N[C@@H](CC(C)C)C(=O)N[C@@H](CCC(=O)O)C(=O)N[C@@H](Cc1ccccc1)C(=O)N[C@@H](CCCNC(=N)N)C(=O)N[C@H](C(=O)N[C@H](C(=O)N[C@@H](CO)C(=O)N[C@@H](CCCCN)C(=O)O)[C@@H](C)O)[C@@H](C)O)[C@@H](C)O)[C@@H](C)O (stereo in doubt) [Peptide 5200] (H-KEGYKVRLDLNTTLEFRTTSK-OH) | significantly higher | 
CC[C@H](C)[C@H](NC(=O)[C@H](CC(N)=O)NC(=O)[C@H](CC(C)C)NC(=O)[C@H](CC(=O)O)NC(=O)[C@H](CC(C)C)NC(=O)[C@H](CCCNC(=N)N)NC(=O)[C@@H](NC(=O)[C@H](CCCCN)NC(=O)[C@H](Cc1ccc(O)cc1)NC(=O)CNC(=O)[C@H](CCC(=O)O)NC(=O)[C@@H](N)CCCCN)C(C)C)C(=O)N[C@H](C(=O)N[C@@H](CC(C)C)C(=O)N[C@@H](CCC(=O)O)C(=O)N[C@@H](Cc1ccccc1)C(=O)N[C@@H](CCCNC(=N)N)C(=O)N[C@H](C(=O)N[C@H](C(=O)N[C@@H](CO)C(=O)N[C@@H](CCCCN)C(=O)O)[C@@H](C)O)[C@@H](C)O)[C@@H](C)O [Peptide 5100] (H-KEGYKVRLDLNITLEFRTTSK-OH) |  | significantly higher
